Results published in paper PMC12709416.
No constants are given. Whether binding was seen depends on the method and setting. In cells and extracts the contact can be indirect. Some entries that bind do so weakly or less than the wild type. Tags and fused reporters may be left off the sequences shown.

T1: MBP-tagged MUT-8 N-terminal fragment (1–235) (C. elegans) (UniProt Q19672)
T1 sequence: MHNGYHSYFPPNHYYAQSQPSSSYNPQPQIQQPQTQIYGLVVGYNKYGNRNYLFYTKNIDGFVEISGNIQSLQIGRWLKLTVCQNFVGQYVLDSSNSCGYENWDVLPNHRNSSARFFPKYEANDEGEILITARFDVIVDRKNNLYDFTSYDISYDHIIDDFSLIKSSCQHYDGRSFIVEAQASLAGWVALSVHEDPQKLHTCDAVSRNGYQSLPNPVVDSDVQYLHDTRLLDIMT

T2: GST-tagged MUT-16 fragment (584–724), WT (C. elegans) (UniProt O62011)
T2 sequence: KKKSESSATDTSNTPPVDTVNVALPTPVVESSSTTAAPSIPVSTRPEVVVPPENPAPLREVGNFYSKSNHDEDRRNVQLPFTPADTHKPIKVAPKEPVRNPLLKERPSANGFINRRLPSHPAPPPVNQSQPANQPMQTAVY

T3: GST-tagged MUT-16 fragment (584–724), seven Arg mutated to Lys (R−K) (C. elegans) (UniProt O62011)
T3 sequence: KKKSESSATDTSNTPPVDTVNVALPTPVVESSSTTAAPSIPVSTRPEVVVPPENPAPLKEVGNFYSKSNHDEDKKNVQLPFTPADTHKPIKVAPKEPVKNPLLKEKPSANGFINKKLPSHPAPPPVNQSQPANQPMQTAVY

B1: GST-tagged MUT-16 fragment (584–724), WT (domain or fragment, UniProt O62011 584-724)
chain: KKKSESSATDTSNTPPVDTVNVALPTPVVESSSTTAAPSIPVSTRPEVVVPPENPAPLREVGNFYSKSNHDEDRRNVQLPFTPADTHKPIKVAPKEPVRNPLLKERPSANGFINRRLPSHPAPPPVNQSQPANQPMQTAVY
B2: GST-tagged MUT-16 fragment (584–724), seven Arg mutated to Lys (R−K) (domain or fragment, UniProt O62011 584-724)
chain: KKKSESSATDTSNTPPVDTVNVALPTPVVESSSTTAAPSIPVSTRPEVVVPPENPAPLKEVGNFYSKSNHDEDKKNVQLPFTPADTHKPIKVAPKEPVKNPLLKEKPSANGFINKKLPSHPAPPPVNQSQPANQPMQTAVY
B3: MBP-tagged MUT-8 N-terminal fragment (1–235) (domain or fragment, UniProt Q19672 1-235)
chain: MHNGYHSYFPPNHYYAQSQPSSSYNPQPQIQQPQTQIYGLVVGYNKYGNRNYLFYTKNIDGFVEISGNIQSLQIGRWLKLTVCQNFVGQYVLDSSNSCGYENWDVLPNHRNSSARFFPKYEANDEGEILITARFDVIVDRKNNLYDFTSYDISYDHIIDDFSLIKSSCQHYDGRSFIVEAQASLAGWVALSVHEDPQKLHTCDAVSRNGYQSLPNPVVDSDVQYLHDTRLLDIMT

Assays:
[1] = molecular target: T1, MBP-tagged MUT-8 N-terminal fragment (1–235) (C. elegans); experiment: pull-down; MBP pull-down: supernatant of E. coli co-expressing MBP-MUT-8 (1–235) and GST-MUT-16 (584–724) on amylose resin, 1–2 h at 4°C; lysis buffer 50 mM NaH2PO4, 20 mM Tris-HCl, 250 mM NaCl, 10 mM imidazole, 10% glycerol, 0.05% IGEPAL, 5 mM 2-mercaptoethanol, pH 7.5; eluted with 10 mM maltose; SDS-PAGE, Coomassie
[2] = molecular target: T2, GST-tagged MUT-16 fragment (584–724), WT (C. elegans); experiment: pull-down; GST pull-down: supernatant of E. coli co-expressing MBP-MUT-8 (1–235) and GST-MUT-16 (584–724) on glutathione resin, 1–2 h at 4°C; lysis buffer 50 mM NaH2PO4, 20 mM Tris-HCl, 250 mM NaCl, 10 mM imidazole, 10% glycerol, 0.05% IGEPAL, 5 mM 2-mercaptoethanol, pH 7.5; eluted with 20 mM reduced glutathione; SDS-PAGE, Coomassie
[3] = molecular target: T3, GST-tagged MUT-16 fragment (584–724), seven Arg mutated to Lys (R−K) (C. elegans); experiment: as above

Binder | binding [1] | binding [2] | binding [3]
B1 | binds | – | –
B2 | binds | – | –
B3 | – | binds | binds
